Measured values published in article PMC2483941.
Results are given in words; binding and its absence hold for the method and conditions named. Binding seen in cells or lysates may run through a third protein. Some results given as binding are weak or reduced against the parent protein; the word gives no strength.

The chains behind the UniProt entries cited, without tags or fusion partners. Residues count along the entry.
UniProt P14334, residues 20-183: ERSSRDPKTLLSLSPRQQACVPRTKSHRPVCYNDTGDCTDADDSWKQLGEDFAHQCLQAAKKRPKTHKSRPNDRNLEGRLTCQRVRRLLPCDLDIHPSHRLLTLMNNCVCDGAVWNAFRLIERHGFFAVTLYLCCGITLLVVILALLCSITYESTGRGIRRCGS
UniProt P08560, residues 19-368: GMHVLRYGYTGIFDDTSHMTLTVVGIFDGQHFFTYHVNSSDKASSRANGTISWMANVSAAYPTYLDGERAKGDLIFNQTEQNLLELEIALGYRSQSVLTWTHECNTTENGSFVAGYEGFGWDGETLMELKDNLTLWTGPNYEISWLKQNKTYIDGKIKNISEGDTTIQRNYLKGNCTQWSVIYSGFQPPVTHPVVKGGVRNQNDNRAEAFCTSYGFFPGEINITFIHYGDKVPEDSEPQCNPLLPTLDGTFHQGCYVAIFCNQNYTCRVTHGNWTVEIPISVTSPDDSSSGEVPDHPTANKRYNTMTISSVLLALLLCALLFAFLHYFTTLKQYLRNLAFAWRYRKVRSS

Experiments:
[1] = target: Human cytomegalovirus (HCMV) US6 glycoprotein (human cytomegalovirus (HCMV)) (UniProt P14334); test: co-IP; HeLa or HeLa-US6 cells infected with vvWT or vvUL18, lysed in 1% digitonin in PBS with protease inhibitors; antibody (anti-US6, anti-UL18 10C7, anti-MHC class I, anti-tapasin) 2 h at 4°C, Protein G-Sepharose, washed four times with 0.1% digitonin; immunoblot
[2] = target: Human cytomegalovirus (HCMV) UL18, MHC class I homolog (human cytomegalovirus (HCMV)) (UniProt P08560); test: co-IP; […]; antibody ([…]) 2 h at 4°C, […]

## TAP1 (from UniProt Q03518 1-748)
[1]
  binding: binds
[2]
  binding: binds
